The other results are listed elsewhere or left out.
Tests used:
Assay in all cases: glycan array binding signal (z-score within array); higher = stronger binding
Settings in all cases: glycan notation: IUPAC condensed, linker removed
GalNAc(b1-4)GlcNAc = target: GalNAc(b1-4)GlcNAc
In short: (§1)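 Arrays were curated from the Consortium for Functional Glycomics database, 3228 in total, and kept only where the protein sequence was available. Binding is expressed as a within-array Z-score. This score was averaged across arrays of the same protein sequence at different concentrations or buffers and across linkers, and negative values can be read as non-binding.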

[1] = target: GalNAc(b1-4)GlcNAc(b1-2)Man
In short: as §1

[2] = target: GalNAc(b1-4)GlcNAc(b1-2)Man(a1-3)[GalNAc(b1-4)GlcNAc(b1-2)Man(a1-6)]Man(b1-4)GlcNAc(b1-4)GlcNAc
In short: as §1

[3] = target: GalNAc(b1-4)GlcNAc(b1-3)GalNAc(b1-4)GlcNAc
In short: as §1

GalNAc(b1-4)GlcNAc6S = target: GalNAc(b1-4)GlcNAc6S
In short: as §1

GalNAc(b1-6)GalNAc = target: GalNAc(b1-6)GalNAc
In short: as §1

GalNAc3S(b1-4)GlcNAc = target: GalNAc3S(b1-4)GlcNAc
In short: as §1

GalNAc3S(b1-4)GlcNAc3S = target: GalNAc3S(b1-4)GlcNAc3S
In short: as §1

[4] = target: GalNAc3S(b1-4)[Fuc(a1-3)]GlcNAc
In short: as §1

GalNAc4S6S(b1-4)GlcNAc = target: GalNAc4S6S(b1-4)GlcNAc
In short: as §1

GalNAc6S(b1-4)GlcNAc = target: GalNAc6S(b1-4)GlcNAc
In short: as §1

Glc(a1-4)Glc = target: Glc(a1-4)Glc
In short: as §1

[5] = target: Glc(a1-4)Glc(a1-4)Glc(a1-4)Glc
In short: as §1

Glc(a1-6)Glc(a1-6)Glc = target: Glc(a1-6)Glc(a1-6)Glc
In short: as §1

[6] = target: Glc(a1-6)Glc(a1-6)Glc(a1-6)Glc
In short: as §1

Glc(b1-4)Glc = target: Glc(b1-4)Glc
In short: as §1

Glc(b1-6)Glc = target: Glc(b1-6)Glc
In short: as §1

GlcA(b1-3)Gal = target: GlcA(b1-3)Gal
In short: as §1

GlcA(b1-3)GlcNAc = target: GlcA(b1-3)GlcNAc
In short: as §1

GlcA(b1-6)Gal = target: GlcA(b1-6)Gal
In short: as §1

[7] = target: GlcA3S(b1-3)Gal(b1-4)GlcNAc(b1-2)Man
In short: as §1

[8] = target: GlcA3S(b1-3)Gal(b1-4)GlcNAc(b1-3)Gal(b1-4)Glc
In short: as §1

[9] = target: GlcNAc(a1-3)Gal(b1-4)GlcNAc
In short: as §1

[10] = target: GlcNAc(a1-4)Gal(b1-3)GlcNAc
In short: as §1

[11] = target: GlcNAc(a1-4)Gal(b1-4)GalNAc
In short: as §1

[12] = target: GlcNAc(a1-4)Gal(b1-4)GlcNAc
In short: as §1

[13] = target: GlcNAc(a1-4)Gal(b1-4)GlcNAc(b1-3)Gal(b1-4)Glc
In short: as §1

[14] = target: GlcNAc(a1-4)Gal(b1-4)GlcNAc(b1-3)Gal(b1-4)GlcNAc
In short: as §1

[15] = target: GlcNAc(a1-4)Gal(b1-4)GlcNAc(b1-3)Gal(b1-4)GlcNAc(b1-3)Gal(b1-4)GlcNAc
In short: as §1

[16] = target: GlcNAc(a1-4)Gal(b1-4)GlcNAc(b1-3)Gal(b1-4)[Fuc(a1-3)]GlcNAc(b1-3)Gal(b1-4)[Fuc(a1-3)]GlcNAc
In short: as §1

[17] = target: GlcNAc(a1-6)Gal(b1-4)GlcNAc
In short: as §1

[18] = target: GlcNAc(b1-2)Gal(b1-3)GalNAc
In short: as §1

[19] = target: GlcNAc(b1-2)Man(a1-3)[GlcNAc(b1-2)Man(a1-6)]Man(b1-4)GlcNAc(b1-4)GlcNAc
In short: as §1

[20] = target: GlcNAc(b1-2)Man(a1-3)[GlcNAc(b1-2)Man(a1-6)]Man(b1-4)GlcNAc(b1-4)[Fuc(a1-6)]GlcNAc
In short: as §1

[21] = target: GlcNAc(b1-2)Man(a1-3)[GlcNAc(b1-4)][GlcNAc(b1-2)Man(a1-6)]Man(b1-4)GlcNAc(b1-4)GlcNAc
In short: as §1

[22] = target: GlcNAc(b1-2)Man(a1-3)[GlcNAc(b1-4)][GlcNAc(b1-2)Man(a1-6)]Man(b1-4)GlcNAc(b1-4)[Fuc(a1-6)]GlcNAc
In short: as §1

[23] = target: GlcNAc(b1-2)[GlcNAc(b1-4)]Man(a1-3)[GlcNAc(b1-2)Man(a1-6)]Man(b1-4)GlcNAc(b1-4)GlcNAc
In short: as §1

[24] = target: GlcNAc(b1-2)[GlcNAc(b1-4)]Man(a1-3)[GlcNAc(b1-4)][GlcNAc(b1-2)Man(a1-6)]Man(b1-4)GlcNAc(b1-4)GlcNAc
In short: as §1

[25] = target: GlcNAc(b1-2)[GlcNAc(b1-4)]Man(a1-3)[GlcNAc(b1-4)][GlcNAc(b1-2)[GlcNAc(b1-6)]Man(a1-6)]Man(b1-4)GlcNAc(b1-4)GlcNAc
In short: as §1

[26] = target: GlcNAc(b1-2)[GlcNAc(b1-4)]Man(a1-3)[GlcNAc(b1-4)][GlcNAc(b1-2)[GlcNAc(b1-6)]Man(a1-6)]Man(b1-4)GlcNAc(b1-4)[Fuc(a1-6)]GlcNAc
In short: as §1

[27] = target: GlcNAc(b1-2)[GlcNAc(b1-6)]Man(a1-6)[GlcNAc(b1-2)Man(a1-3)]Man(b1-4)GlcNAc(b1-4)GlcNAc
In short: as §1

[28] = target: GlcNAc(b1-2)[GlcNAc(b1-6)]Man(a1-6)[GlcNAc(b1-2)Man(a1-3)]Man(b1-4)GlcNAc(b1-4)[Fuc(a1-6)]GlcNAc
In short: as §1

[29] = target: GlcNAc(b1-2)[GlcNAc(b1-6)]Man(a1-6)[GlcNAc(b1-4)][GlcNAc(b1-2)Man(a1-3)]Man(b1-4)GlcNAc(b1-4)GlcNAc
In short: as §1

GlcNAc(b1-3)Fuc = target: GlcNAc(b1-3)Fuc
In short: as §1

GlcNAc(b1-3)Gal = target: GlcNAc(b1-3)Gal
In short: as §1

B1: AFL6 (Aspergillus fumigatus), Q4WKJ1 (protein)
chain: MSFHLTAEDIRIEDGHRLVARLRNADGDLQDASIDLNTCLGNDNGHFQWDGVDFSHSAQDVHFAIEGGGQVPVLRAQLANQDGEFQDADVNLSERIENINGEFVFH
- glycan array binding signal (z-score) (GalNAc(b1-4)GlcNAc): -0.342
- glycan array binding signal (z-score) [1]: -0.216
- glycan array binding signal (z-score) [2]: 0.101
- glycan array binding signal (z-score) [3]: -0.273
- glycan array binding signal (z-score) (GalNAc(b1-4)GlcNAc6S): -0.206
- glycan array binding signal (z-score) (GalNAc(b1-6)GalNAc): -0.904
- glycan array binding signal (z-score) (GalNAc3S(b1-4)GlcNAc): 0.248
- glycan array binding signal (z-score) (GalNAc3S(b1-4)GlcNAc3S): -0.422
- glycan array binding signal (z-score) [4]: 0.033
- glycan array binding signal (z-score) (GalNAc4S6S(b1-4)GlcNAc): -0.615
- glycan array binding signal (z-score) (GalNAc6S(b1-4)GlcNAc): -0.605
- glycan array binding signal (z-score) (Glc(a1-4)Glc): -0.518
- glycan array binding signal (z-score) [5]: -0.284
- glycan array binding signal (z-score) (Glc(a1-6)Glc(a1-6)Glc): -0.6
- glycan array binding signal (z-score) [6]: -0.415
- glycan array binding signal (z-score) (Glc(b1-4)Glc): -0.729
- glycan array binding signal (z-score) (Glc(b1-6)Glc): -0.602
- glycan array binding signal (z-score) (GlcA(b1-3)Gal): 0.198
- glycan array binding signal (z-score) (GlcA(b1-3)GlcNAc): -0.434
- glycan array binding signal (z-score) (GlcA(b1-6)Gal): 0.078
- glycan array binding signal (z-score) [7]: -0.915
- glycan array binding signal (z-score) [8]: 0.361
- glycan array binding signal (z-score) [9]: -0.831
- glycan array binding signal (z-score) [10]: 0.373
- glycan array binding signal (z-score) [11]: 0.058
- glycan array binding signal (z-score) [12]: 2.64
- glycan array binding signal (z-score) [13]: 2.89
- glycan array binding signal (z-score) [14]: 3.58
- glycan array binding signal (z-score) [15]: 3.77
- glycan array binding signal (z-score) [16]: 1.86
- glycan array binding signal (z-score) [17]: -0.357
- glycan array binding signal (z-score) [18]: -0.464
- glycan array binding signal (z-score) [19]: -0.272
- glycan array binding signal (z-score) [20]: 0.105
- glycan array binding signal (z-score) [21]: -0.863
- glycan array binding signal (z-score) [22]: 0.117
- glycan array binding signal (z-score) [23]: 0.184
- glycan array binding signal (z-score) [24]: -0.157
- glycan array binding signal (z-score) [25]: -0.432
- glycan array binding signal (z-score) [26]: -1.21
- glycan array binding signal (z-score) [27]: -0.169
- glycan array binding signal (z-score) [28]: 0.441
- glycan array binding signal (z-score) [29]: -0.56
- glycan array binding signal (z-score) (GlcNAc(b1-3)Fuc): -0.287
- glycan array binding signal (z-score) (GlcNAc(b1-3)Gal): -0.004

Source: the supplement of paper PMC8728848
